One series is described as follows: Cytotoxicity assay. Type of series: cell-based, canine. The conditions noted are these: dog, MDCK cells.
Series [1] concerns A/shenzhen/203/2001 (H3N2 subtype). Put plainly: microbe, parasite or virus in culture. Type of series: cell-based. Particulars: Influenza A virus, H3N2, MDCK, 72 h, read-out: IC50 (H3N2).

Converted amounts (≈) assume the structure as drawn.

In “Cytotoxicity assay”, `C=C1CCC[C@]2(C)C=C3OC(=O)C(C)=C3C[C@@H]12` [Atractylenolide I, atractylenolide I] returned a CC50 at 3 days of 204 mg/L (≈ 884 µM). Also, the IC50 in series [1] was found to be 35.1 mg/L (≈ 152 µM).

The values above are taken from paper PMC5042776 (Molecular Medicine Reports, 2016).
